Reference: article doi:10.1101/2021.09.20.460979
No constants are given. Whether binding was seen depends on the method and setting. In cells and extracts the contact can be indirect. Some entries that bind do so weakly or less than the wild type.

The chains behind the UniProt entries cited, without tags or fusion partners. Residues count along the entry.
UniProt P08581, residues 25-1390: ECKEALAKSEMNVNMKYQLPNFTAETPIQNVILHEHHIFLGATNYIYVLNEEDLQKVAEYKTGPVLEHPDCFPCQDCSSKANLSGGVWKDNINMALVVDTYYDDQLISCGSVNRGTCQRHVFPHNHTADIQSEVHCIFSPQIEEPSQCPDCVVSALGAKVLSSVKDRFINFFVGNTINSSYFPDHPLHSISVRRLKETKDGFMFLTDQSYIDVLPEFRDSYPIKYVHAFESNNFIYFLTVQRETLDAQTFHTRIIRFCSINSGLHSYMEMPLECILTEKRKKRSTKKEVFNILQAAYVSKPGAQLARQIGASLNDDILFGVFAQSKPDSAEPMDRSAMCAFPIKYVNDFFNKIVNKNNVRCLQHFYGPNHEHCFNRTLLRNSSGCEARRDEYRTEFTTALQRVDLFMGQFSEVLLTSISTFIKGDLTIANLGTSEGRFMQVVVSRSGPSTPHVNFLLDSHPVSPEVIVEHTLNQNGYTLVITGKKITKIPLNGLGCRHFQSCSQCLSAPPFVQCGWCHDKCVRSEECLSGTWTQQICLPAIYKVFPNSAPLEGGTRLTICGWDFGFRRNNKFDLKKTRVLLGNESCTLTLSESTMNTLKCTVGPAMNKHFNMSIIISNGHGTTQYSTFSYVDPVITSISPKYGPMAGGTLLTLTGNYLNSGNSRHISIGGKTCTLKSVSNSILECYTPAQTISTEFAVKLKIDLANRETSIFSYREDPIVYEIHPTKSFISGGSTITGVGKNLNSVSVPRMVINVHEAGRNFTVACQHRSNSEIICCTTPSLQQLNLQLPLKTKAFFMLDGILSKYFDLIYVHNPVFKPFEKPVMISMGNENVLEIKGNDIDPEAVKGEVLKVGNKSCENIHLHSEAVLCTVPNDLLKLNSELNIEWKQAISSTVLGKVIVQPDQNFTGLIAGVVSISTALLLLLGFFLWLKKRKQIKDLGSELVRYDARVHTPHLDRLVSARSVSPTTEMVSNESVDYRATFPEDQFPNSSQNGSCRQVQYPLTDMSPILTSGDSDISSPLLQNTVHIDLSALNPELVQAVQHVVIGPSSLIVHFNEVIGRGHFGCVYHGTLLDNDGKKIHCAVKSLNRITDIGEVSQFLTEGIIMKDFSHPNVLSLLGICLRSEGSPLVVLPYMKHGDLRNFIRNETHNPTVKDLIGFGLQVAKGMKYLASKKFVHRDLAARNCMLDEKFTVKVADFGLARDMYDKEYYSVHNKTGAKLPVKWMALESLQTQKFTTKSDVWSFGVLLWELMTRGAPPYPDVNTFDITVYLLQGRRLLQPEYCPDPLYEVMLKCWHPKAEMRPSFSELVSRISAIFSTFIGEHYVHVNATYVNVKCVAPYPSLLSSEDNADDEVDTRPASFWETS

Target: endogenous c-MET (cellular mesenchymal-epidermal transition receptor) immunoprecipitated from 293T cells (human (endogenous in 293T)) (UniProt P08581)
Assay: pull-down

Substance: Flag-tagged HGF WT (hepatocyte growth factor), in-vitro translated (from UniProt P14210-1 1-728) (ligand)
- binding: binds
